# Measured values taken from patent US7223850.
# Results are given in words; binding and its absence hold for the method and conditions named. A result given as binding can be weak or reduced; the word gives no strength. For some of these results: In cells and extracts the contact can be indirect. For some of these results: Sequences can lack the tags named with a protein.
# Columns and labels:
# [1] = target: T1, TRAF2 as tested in the yeast two-hybrid system (UniProt Q12933); assay: yeast two-hybrid
# T1 sequence (looked up): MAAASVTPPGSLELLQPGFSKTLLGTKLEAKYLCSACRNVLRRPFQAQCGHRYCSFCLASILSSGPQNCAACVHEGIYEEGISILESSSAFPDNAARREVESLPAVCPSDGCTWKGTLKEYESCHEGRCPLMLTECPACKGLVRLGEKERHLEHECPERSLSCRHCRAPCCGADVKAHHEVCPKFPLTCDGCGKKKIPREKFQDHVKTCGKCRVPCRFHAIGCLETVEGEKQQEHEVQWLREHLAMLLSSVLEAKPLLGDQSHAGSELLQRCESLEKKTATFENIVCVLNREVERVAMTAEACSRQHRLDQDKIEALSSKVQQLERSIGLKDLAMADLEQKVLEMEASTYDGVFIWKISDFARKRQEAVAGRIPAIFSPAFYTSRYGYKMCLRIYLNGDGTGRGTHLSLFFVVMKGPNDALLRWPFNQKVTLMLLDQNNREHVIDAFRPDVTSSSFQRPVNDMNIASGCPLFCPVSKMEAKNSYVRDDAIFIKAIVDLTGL
# [2] = target: T1, TRAF2 as tested in the yeast two-hybrid system; assay: summary: yeast two-hybrid
# Flag-tagged TRAF2 [3] = target: T2, Flag-tagged TRAF2 (UniProt Q12933); assay: summary: co-immunoprecipitation in mammalian cells
# T2 sequence (looked up): T1 sequence (looked up)
# Flag-tagged TRAF2 [4] = target: T2, Flag-tagged TRAF2; assay: co-immunoprecipitation from Flag-TRAF2 transfected cells, detection by anti-Apop3 Ab
Substance,binding [1],binding [2],binding (Flag-tagged TRAF2 [3]),binding (Flag-tagged TRAF2 [4])
Apop3 as tested in the yeast two-hybrid system (enzyme),binds,binds,,
endogenous Apop3 (enzyme),,,binds,binds
